Experimental data taken from patent US20240389581A1, “SYNERGISTIC PESTICIDAL COMPOSITIONS AND METHODS FOR DELIVERY OF INSECTICIDAL ACTIVE INGREDIENTS” (TERRAMERA, INC., priority 2021, published 2024).
The name of at least one read-out is uncertain.

Tested on: Trichoplusia ni (cabbage looper) larvae
Experiment: In-vitro insecticidal efficacy (mortality and bioactivity, treated artificial diet, Abbott and Colby formulas) against Trichoplusia ni
Type: in vivo
Conditions: aliphatic acid (salt) 500 ppm, alone or combined; for Survival Rate (100-mortality): in-vitro; for Observed Efficacy (mortality), W / Observed Efficacy (bioactivity), W: Abbott formula; for Observed Efficacy (bioactivity), W: bioactivity = mortality + growth stunting
Protocol: An artificial diet suitable for Trichoplusia ni (cabbage looper caterpillar) was prepared from a commercially available general purpose lepidoptera artificial diet premix (such as General Purpose Lepidoptera Diet available from Frontier Scientific Services, Newark, DE) and mixed in a heated liquid agar media (0.022 g agar per ml of water). The liquid artificial diet and agar media was then used to fill each well of a transparent 96-well treatment plate with 200 μL of the artificial diet and agar media, which was allowed to solidify at room temperature and stored at approximately 4 C.
A 20 μL treatment sample of each treatment formulation was then placed on top of the solidified artificial diet media in a well of a 96 well plate and allowed to dry overnight.
(§1) The following day, one neonate Trichoplusia ni (cabbage looper) larva (hatched from eggs obtained from the Benzon Research, Inc. of Carlisle, PA, USA) was added to each well of the plate, after which the wells were sealed with a perforated transparent film, allowing air and moisture exchange. The plates were kept in a suitable regulated indoor incubation environment and the larvae were allowed to feed on the treatment overlaid diet/agar media for 5 days. […] Each experiment contained 8 replicates (larvae cells) for each treatment.
(§2) While for SF<1, antagonism is present and for SF=1, the efficacy of the compounds is merely additive.
as §1, with “such as available” for “obtained”, “from” for “from the”
as §2

[1] = Table 69A, Coragen 0.2525 ppm (0.04646 ppm chlorantraniliprole)

SMILES | Survival Rate (100-mortality) [1] [%] | Observed Efficacy (mortality), W (Table 69A, Coragen 0.2525 ppm) [%] | Observed Efficacy (bioactivity), W (Table 69B, Coragen 0.2525 ppm) [%] | Observed Efficacy (bioactivity), W (Table 70B, Coragen 0.505 ppm) [%] | Survival Rate (100-mortality) (Table 70A, Coragen 0.505 ppm (0.09292 ppm chlorantraniliprole)) [%] | Observed Efficacy (mortality), W (Table 70A, Coragen 0.505 ppm) [%]
O=C(O)CCCCCCCCCO [10-hydroxydecanoic acid] | 79.17 | 13.64 | 14.29 | – | – | –
O=C(O)CCCCCCCCCCCO [12-hydroxydodecanoic acid] | 95.83 | 0.00 | 0.00 | – | – | –
CCCCCC(=O)O [Hexanoic acid] | – | – | 0.00 | 0 | – | –
CCC/C=C/C(=O)[O-].[K+] [trans-2-hexenoic acid potassium salt] | – | – | 0.00 | 13.04 | 83.33 | 13.04
